Results deposited as PubChem BioAssay AID504774 (Drosophila RNAi Screening Center, 2011).
Screen: 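Fly genes whose loss alters survival after alkylation damage to DNA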 (primary screen). Cell system: Drosophila Kc167 cells. Knock-down reagent: long dsRNA against Drosophila genes, about 0.25 µg dsRNA per well. Duration: about 6 days: 3 days knock-down, then 3 days with or without MMS. Treatment: methyl methanesulphonate 0.004% (w/v) for 3 days after knock-down. Measured: 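Viability in wells given MMS, read as ATP luminescence, normalised by quantiles plate by plate and averaged across replicates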. Reading the numbers: mean viability with MMS and viability with MMS: higher = more surviving cells after MMS.
The screen tested about 23,000 reagents; shown is an unselected part of those that have a named target and a result. 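Values are quantile-normalised luminescence on an arbitrary scale; higher means more cells surviving MMS.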 Reagents against one gene are numbered here. Names joined by + are all predicted targets of the reagent. Further read-outs or replicates are left out here.

CG31544 (retired record) showed mean viability with MMS 3.48e6; viability with MMS, replicate 1 = 4.05e6.
With knock-down of Or45b (Odorant receptor 45b), the screen gave mean viability with MMS 3.58e6; viability with MMS, replicate 1 = 3.96e6.
After knock-down of Sym (Symplekin), the screen gave mean viability with MMS 3.48e6; viability with MMS, replicate 1 = 3.92e6.
With knock-down of G9a, the record shows mean viability with MMS 3.48e6; viability with MMS, replicate 1 = 4.02e6.
For jdp, the entry reads mean viability with MMS 3.51e6; viability with MMS, replicate 1 = 3.94e6.
Depletion of TfIIFbeta (Transcription factor TFIIFbeta) #1 resulted in: mean viability with MMS 3.67e6; viability with MMS, replicate 1 = 4.11e6.
Depletion of TfIIFbeta (Transcription factor TFIIFbeta) #2 resulted in: mean viability with MMS 2.69e6; viability with MMS, replicate 1 = 3.64e6.
Silencing of CG43896 came out at: mean viability with MMS 3.77e6; viability with MMS, replicate 1 = 4.30e6.
CG9915 showed mean viability with MMS 3.46e6; viability with MMS, replicate 1 = 3.89e6.
Against CG32243, the entry reads mean viability with MMS 3.46e6; viability with MMS, replicate 1 = 4.01e6.
Depletion of CG31102 gave: mean viability with MMS 3.63e6; viability with MMS, replicate 1 = 4.18e6.
Against CG13727, the values are mean viability with MMS 3.71e6; viability with MMS, replicate 1 = 3.96e6.
Depletion of PIG-F (Phosphatidylinositol glycan anchor biosynthesis class F) came out at: mean viability with MMS 3.84e6; viability with MMS, replicate 1 = 4.28e6.
Cp18 (Chorion protein 18) showed mean viability with MMS 3.54e6; viability with MMS, replicate 1 = 4.04e6.
After knock-down of CG8993 the results were mean viability with MMS 3.61e6; viability with MMS, replicate 1 = 4.07e6.
Against CG12420, the values are mean viability with MMS 3.67e6; viability with MMS, replicate 1 = 4.15e6.
dnd (dead end) showed mean viability with MMS 3.45e6; viability with MMS, replicate 1 = 3.90e6.
Sfmbt (Scm-related gene containing four mbt domains) showed mean viability with MMS 3.54e6; viability with MMS, replicate 1 = 3.93e6.
After knock-down of SkpB (SKP1-related B), the screen gave mean viability with MMS 3.57e6; viability with MMS, replicate 1 = 4.00e6.
With knock-down of Ide (Insulin degrading metalloproteinase), the screen gave mean viability with MMS 3.60e6; viability with MMS, replicate 1 = 4.05e6.
CG31418 scored mean viability with MMS 3.46e6; viability with MMS, replicate 1 = 3.95e6.
For mRpL27 (mitochondrial ribosomal protein L27), the values are mean viability with MMS 3.67e6; viability with MMS, replicate 1 = 4.08e6.
Against nord #1, the values are mean viability with MMS 3.55e6; viability with MMS, replicate 1 = 3.94e6.
With knock-down of nord #2, the screen gave mean viability with MMS 3.69e6; viability with MMS, replicate 1 = 4.20e6.
Against CG5500, the entry reads mean viability with MMS 3.69e6; viability with MMS, replicate 1 = 4.25e6.
After knock-down of CG30010, the screen gave mean viability with MMS 3.45e6; viability with MMS, replicate 1 = 4.02e6.
Silencing of Act42A (Actin 42A) resulted in: mean viability with MMS 3.46e6; viability with MMS, replicate 1 = 3.87e6.
Knock-down of Uba4 (Ubiquitin-like activating enzyme 4) came out at: mean viability with MMS 3.44e6; viability with MMS, replicate 1 = 3.95e6.
Knock-down of CG14196 gave: mean viability with MMS 3.61e6; viability with MMS, replicate 1 = 4.16e6.
CG17065 gave mean viability with MMS 3.75e6; viability with MMS, replicate 1 = 4.17e6.
CG8870 gave mean viability with MMS 3.74e6; viability with MMS, replicate 1 = 4.34e6.
Knock-down of Osi12 (Osiris 12) resulted in: mean viability with MMS 3.52e6; viability with MMS, replicate 1 = 3.95e6.
With knock-down of CG31463 the results were mean viability with MMS 3.48e6; viability with MMS, replicate 1 = 3.93e6.
After knock-down of CG31601 the results were mean viability with MMS 3.41e6; viability with MMS, replicate 1 = 3.92e6.
After knock-down of Qsox1 (Quiescin sulfhydryl oxidase 1), the record shows mean viability with MMS 3.73e6; viability with MMS, replicate 1 = 4.00e6.
Depletion of CG13877 + pyx gave: mean viability with MMS 3.67e6; viability with MMS, replicate 1 = 4.20e6.
Silencing of Myo61F (Myosin 61F) came out at: mean viability with MMS 3.65e6; viability with MMS, replicate 1 = 4.11e6.
Lrr47 (Leucine-rich repeat 47) gave mean viability with MMS 3.19e6; viability with MMS, replicate 1 = 3.57e6.
After knock-down of Set, the screen gave mean viability with MMS 3.52e6; viability with MMS, replicate 1 = 3.99e6.
Osi21 (Osiris 21) showed mean viability with MMS 3.43e6; viability with MMS, replicate 1 = 3.78e6.
CG5043 scored mean viability with MMS 3.53e6; viability with MMS, replicate 1 = 3.99e6.
BckdhA (Branched chain keto acid dehydrogenase E1 subunit alpha) showed mean viability with MMS 3.60e6; viability with MMS, replicate 1 = 4.09e6.
For botv, the entry reads mean viability with MMS 3.44e6; viability with MMS, replicate 1 = 3.94e6.
Depletion of CG9592 came out at: mean viability with MMS 3.49e6; viability with MMS, replicate 1 = 4.04e6.
Knock-down of CG13008 #1 resulted in: mean viability with MMS 3.55e6; viability with MMS, replicate 1 = 4.06e6.
Knock-down of CG13008 #2 came out at: mean viability with MMS 3.63e6; viability with MMS, replicate 1 = 4.09e6.

Targets above whose gene name starts with S or s:
Sym (Symplekin) → mean viability with MMS = 3.48e6; viability with MMS, replicate 1 = 3.92e6
Sfmbt (Scm-related gene containing four mbt domains) → mean viability with MMS = 3.54e6; viability with MMS, replicate 1 = 3.93e6
SkpB (SKP1-related B) → mean viability with MMS = 3.57e6; viability with MMS, replicate 1 = 4.00e6
Set → mean viability with MMS = 3.52e6; viability with MMS, replicate 1 = 3.99e6
